Read-outs that look alike come from different tables or passages of the source. No constants are given. Whether binding was seen depends on the method and setting. In cells and extracts the contact can be indirect. Here binding means that the protein was enriched with, or labelled near, the bait; the list need not be complete. For some of these results: No binding means not detected with the bait. For some of these results: Where a sequence is shown, tags or fusion partners need not be part of it.
T1: GST-YidC1CT (Streptococcus mutans UA159) (UniProt Q8DVX3)
T1 sequence: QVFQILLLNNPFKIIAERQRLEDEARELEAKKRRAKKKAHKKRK

T2: GST-YidC2CT (Streptococcus mutans UA159) (UniProt Q8DSP8)
T2 sequence: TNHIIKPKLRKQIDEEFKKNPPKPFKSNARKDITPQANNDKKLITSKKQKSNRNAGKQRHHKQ

T3: GST-YidC2CT (Streptococcus mutans UA159), Q8DSP8
T3 chain: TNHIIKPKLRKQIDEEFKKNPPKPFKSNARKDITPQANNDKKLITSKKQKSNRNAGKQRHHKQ


How the values were obtained:
Test in all cases: affinity purification with mass spectrometry
[1] = target: T1, GST-YidC1CT (Streptococcus mutans UA159)
[2] = target: T2, GST-YidC2CT (Streptococcus mutans UA159)
[3] = target: YidC2 (Streptococcus mutans (endogenous in UA159 and NG8)) (UniProt Q8DSP8)
[4] = target: T3, GST-YidC2CT (Streptococcus mutans …); conditions: remark: other sources report otherwise
[5] = target: T1, GST-YidC1CT (Streptococcus mutans UA159); remark: listed apart in the source

Molecule | binding [1] | binding [2] | also measured
cell division protein FtsH (from UniProt Q8DWM7) | binds |  | 
histidine kinase (SMU_486) | binds |  | 
SecE (from UniProt Q8DS81 1-58) | no binding | no binding | 
SecG | no binding | no binding | 
YajC | no binding | no binding | 
SecY (from UniProt Q8DS32) | no binding | no binding | 
SecA (from UniProt Q8DSF0 1-839) |  |  | binding [3]: binds
Ffh, Q54431 1-516 (protein) MAFESLTERLQGVFKNLRGKRKLSEKDVQEVTKEIRLALLEADVALPVVKEFIKRVRKRAVGHEVIDTLDPSQQIIKIVNEELTAVLGSETAEIEKSSKIPTIIMMVGLQGAGKTTFAGKLANKLVKEENARPLMIAADIYRPAAIDQLKTLGQQINVPVFDMGTEHSAVEIVSQGLAQAKENRNDYVLIDTAGRLQIDEKLMTELRDIKALANPNEILLVVDSMIGQEAANVAREFNQQLEVTGVILTKIDGDTRGGAALSVRQITGKPIKFTGTGEKITDIETFHPDRMSSRILGMGDLLTLIEKASQDYDEQKSAELAEKMRENSFDFNDFIEQLDQVQNMGSMEDILKMIPGMANNPALANVKVDEGEIARKRAIVSSMTPEERENPDLLTPSRRRRIASGSGNTFVNVNKFIKDFNQAKKMMQGVMSGDMNKVMKQMGINPNNMPKNMDSSALEGMMGQGGMPDMSELSGTNMDVSQMFGGGLKGKVGEFAMKQSMKKMAKRMKKAKKRKK |  |  | binding [4]: binds
Ffh (protein, UniProt Q54431 1-516) MAFESLTERLQGVFKNLRGKRKLSEKDVQEVTKEIRLALLEADVALPVVKEFIKRVRKRAVGHEVIDTLDPSQQIIKIVNEELTAVLGSETAEIEKSSKIPTIIMMVGLQGAGKTTFAGKLANKLVKEENARPLMIAADIYRPAAIDQLKTLGQQINVPVFDMGTEHSAVEIVSQGLAQAKENRNDYVLIDTAGRLQIDEKLMTELRDIKALANPNEILLVVDSMIGQEAANVAREFNQQLEVTGVILTKIDGDTRGGAALSVRQITGKPIKFTGTGEKITDIETFHPDRMSSRILGMGDLLTLIEKASQDYDEQKSAELAEKMRENSFDFNDFIEQLDQVQNMGSMEDILKMIPGMANNPALANVKVDEGEIARKRAIVSSMTPEERENPDLLTPSRRRRIASGSGNTFVNVNKFIKDFNQAKKMMQGVMSGDMNKVMKQMGINPNNMPKNMDSSALEGMMGQGGMPDMSELSGTNMDVSQMFGGGLKGKVGEFAMKQSMKKMAKRMKKAKKRKK |  |  | binding [5]: no binding

— publication doi:10.1101/2020.04.07.031013
